According to PubChem BioAssay AID504467 (National Center for Advancing Translational Sciences (NCATS), 2011):
Screen size: about 330,000 compounds; about 7,700 (2.3%) were called active. Inconclusive means that the source gave no clear call. Such entries were picked first, then a sample of the others. The call rests on the fitted dose curve; in most records, active means well fitted inhibition curve with a large enough effect; inconclusive means small, poorly fitted or top-dose-only effect, or effect the other way; inactive means flat fitted curve, though single readings scatter. Potencies beside an inconclusive call are fits to weak or partial responses and may not hold up.

experiment: qHTS screen for small molecules that inhibit ELG1-dependent DNA repair in human embryonic kidney (HEK293T) cells expressing luciferase-tagged ELG1; details: HEK293T ELG1-luciferase reporter, luminescence, 16 h, DNA damage induced by 5-fluorouridine; activity change, negative = inhibition: at 46.1 µM (top of the series); further: nearly all actives have a fitted effect of over 55% in size
Method in brief: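 Quantitative HTS, concentration-response format. 2,000 cells/well co-treated with 5-fluorouridine and compound, 16 hr in 5% CO2 at 37 °C; ONE-Glo luminescence read after 30 min.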
On the % scale 0 is the no-effect control and ±100 the full control effect; potency means the concentration at half of the fitted maximal effect.

| SMILES | Potency | activity change, negative = inhibition |
| --- | --- | --- |
| N#CCC(=O)N/N=C/c1ccc(Cl)cc1 | inconclusive: 23.1 µM [activator, single point] | – |
| CC(NC(=O)C1CCC(CNS(=O)(=O)c2ccc3c(c2)C(C)(C)C(=O)N3C)CC1)c1ccccc1 (configuration not stated) | – | inactive: -16.9% |
| Cc1ccccc1Nc1nc(N)nc(CSc2ccccc2)n1 | inconclusive: 4.61 µM [activator, partial curve] | – |
| O=C(CCl)Nc1cccc(S(=O)(=O)NC2=NCCCCC2)c1 | inconclusive: 20.6 µM [inhibitor, single point] | – |
| CCOc1ncccc1C(=O)Nc1ccccc1C(=O)NCc1ccc2c(c1)OCO2 | inconclusive: 14.6 µM [inhibitor, single point] | – |
| Cn1ccc(C(=O)Oc2ccc(C(=O)Nc3ccc(F)cc3F)cc2)n1 | inconclusive: 20.6 µM [activator, partial curve] | – |
| C[C@@]12CCC=C[C@H]1[C@H](c1ccc(C(F)(F)F)cc1)N(Cc1ccccc1)C2=O | inconclusive: 20.6 µM [inhibitor, single point] | – |
| Cc1cccc(NC(=O)c2ccc(COc3cccc4ccccc34)o2)n1 | – | inactive: -15.7% |
| Cc1cc(C)c2oc(C(=O)Nc3ccc(S(=O)(=O)N4CCC(C)CC4)cc3)cc(=O)c2c1 | inconclusive: 4.11 µM [inhibitor, partial curve] | – |
| CC(=O)NCCCC(=O)NNC1CC(=O)N(c2cccc(Cl)c2)C1=O (configuration not stated) | inconclusive: 14.6 µM [activator, single point] | – |
| CCOC(CCn1c(SCC(=O)Nc2cc(C)on2)nc2ccccc2c1=O)OCC | active: 20.6 µM | – |
| CCOC(=O)c1cc(=O)n2c(nc3ccccc32)[nH]1 | inconclusive: 25.1 µM [activator, single point] | – |
| Cc1sc(NC(=O)c2ccccc2F)c(CN2CCCCC2C)c1C (configuration not stated) | inconclusive: 7.31 µM [activator, partial curve] | – |
| c1ccc(Nc2c3c(nc4ccccc24)CCC3)cc1 | inconclusive: 18.3 µM [inhibitor, single point] | – |
| Cc1cccc(N=CC=C2OC(C)(C)C(C)(C)O2)c1 | inconclusive: 18.4 µM [activator, partial curve, poor fit] | – |
| CCc1ccc(C2=NNC(=Nc3cccc(S(=O)(=O)N(C)C)c3)SC2)cc1 | inconclusive: 0.92 µM [activator, partial curve, poor fit] | – |
| COCCN1CCn2c(nc3cc(NC(=O)c4cccs4)ccc32)C1 | inconclusive: 11.6 µM [activator, partial curve] | – |
| O=C(NN1C(=O)C2C3C=CC(O3)C2C1=O)c1cccc(Br)c1 (configuration not stated) | – | inactive: 6.47% |
| CN(CCO)C1=NS(=O)(=O)c2cc([N+](=O)[O-])ccc21 | inconclusive: 8.2 µM [inhibitor, partial curve, poor fit] | – |
| COc1ccc(-c2noc(-c3ccc(Cl)cc3[N+](=O)[O-])n2)cc1OC | inconclusive: 3.66 µM [activator, single point] | – |
| Cc1c([N+](=O)[O-])c(C(=O)Nc2ccc3c(c2)OCCO3)nn1C | inconclusive: 16.4 µM [activator, partial curve] | – |
| CCn1c(C2CC(=O)N(Cc3ccccc3)C2)nc2ccccc21 (configuration not stated) | – | inactive: 0.401% |
| CSc1nc2ccc3nc(NC(=O)c4cccs4)sc3c2s1 | inconclusive: 23.1 µM [activator, single point] | – |
| Nc1nc2ccc(N3CCOCC3)cc2s1 | inconclusive: 18.4 µM [activator, partial curve] | – |

| SMILES | Potency | activity change, negative = inhibition |
| --- | --- | --- |
| CC1Sc2ccc(S(=O)(=O)CCC(=O)N3CCCC3)cc2NC1=O (configuration not stated) | – | inactive: -3.72% |
| Cc1ccc(NC(=O)N(Cc2nc3ccccc3c(=O)[nH]2)Cc2cccs2)cc1 | inconclusive: 32.6 µM [inhibitor, single point] | – |
| O=C(Nc1cccc(NS(=O)(=O)c2ccc(S(=O)(=O)NC3CC3)cc2)c1)c1ccccn1 | inconclusive: 18.4 µM [inhibitor, partial curve, poor fit] | – |
| Cn1ccc2cc(-c3csc(N4CCC(C(N)=O)CC4)n3)ccc21 | – | inactive: 12.2% |
| CCOC(=O)c1cccc(C2=CC(=O)CC(C)(C)C2)c1 | – | inactive: 2.8% |
| COc1ccc(NC(=O)Cn2cccc2)cc1Cl | – | inactive: 12.7% |
| CCCOc1ccc(N/C=C/C(=O)c2cc(OC)c(OC)c(OC)c2)cc1 | inconclusive: 10 µM [inhibitor, partial curve, poor fit] | – |
| Cc1sc2ncnc(N3CCN(Cc4ccccc4)CC3)c2c1-c1ccccc1 | inconclusive: 16.4 µM [inhibitor, single point] | – |
| Cc1ccc(-c2csc(N/N=C/c3ccco3)n2)c(C)c1 | inconclusive: 20.6 µM [activator, partial curve] | – |
| Cc1ccc2nc(N3CCN(C(=O)c4ccco4)CC3)sc2c1 | inconclusive: 7.3 µM [activator, partial curve] | – |
| CN(C)c1ccc(C(CNC(=O)c2ccccc2)c2c[nH]c3ccccc23)cc1 (configuration not stated) | inconclusive: 32.6 µM [inhibitor, single point] | – |
| COCCn1c(N)c(N(Cc2ccccc2)C(=O)Cc2c(Cl)cccc2Cl)c(=O)[nH]c1=O | inconclusive: 3.66 µM [activator, partial curve, poor fit] | – |
| CCN(Cc1ccccc1)S(=O)(=O)c1csc(C(N)=O)c1 | – | inactive: -1.46% |
| Cc1ccc(-c2nc3ccccc3[nH]c2=O)cc1 | inconclusive: 18.3 µM [activator, partial curve] | – |
| O=S(=O)(NCc1cccs1)NCc1ccccc1F | – | inactive: 8.49% |
| CCOC(=O)c1ccc(N2C(=O)c3n[nH]c(-c4ccco4)c3C2c2ccc([N+](=O)[O-])cc2)cc1 (configuration not stated) | active: 23.1 µM | – |
| CC/C(O)=C1\C(=O)CC(c2ccccc2)CC1=NCCc1c(C)[nH]c2ccc(C)cc12 (configuration not stated) | inconclusive: 32.6 µM [inhibitor, single point] | – |
| O=C(NCCCNC(=O)c1cnccn1)c1cccc(F)c1 | – | inactive: 11.5% |
| Cc1ccccc1OCC(=O)Nc1cc(S(=O)(=O)N2CCCCC2)ccc1N1CCN(C)CC1 | inconclusive: 29.1 µM [inhibitor, single point] | – |
| COc1cccc2c1c(NC(=O)Nc1ccc(F)cc1F)nn2C | – | inactive: -1.78% |
| COc1ccc2cc3c(nc2c1)OCC3 | inconclusive: 18.3 µM [activator, single point] | – |
| CC(=O)N/C(=C\c1ccccc1)C(=O)OCC(=O)c1c(N)n(CC(C)C)c(=O)n(C)c1=O | inconclusive: 6.51 µM [inhibitor, single point] | – |
| Cc1ccc(Cl)c(OCC(=O)OCC(=O)c2ccc[nH]2)c1 | – | inactive: 3.37% |
| Cc1nn(-c2ccccc2)c(Cl)c1/C=N/NC(=O)c1ccn[nH]1 | inconclusive: 1.16 µM [activator, full curve] | – |

| SMILES | Potency | activity change, negative = inhibition |
| --- | --- | --- |
| N#C/C(=C(/O)CN1CCN(c2ccccc2F)CC1)c1nc(-c2ccc(Cl)cc2)cs1 | – | inactive: -20.5% |
| Cc1ccc(N=Cc2ccc(N(C)C)cc2)cc1 | – | inactive: 13.5% |
| Cc1cc(OCCCN2CCCC2)ccc1Cl | – | inactive: -5.61% |
| C/C(CC(=O)NC1CCCCC1)=N\NC(=O)COc1ccc(C)cc1Br | – | inactive: 0.826% |
| O=C(Nc1cc(Cl)ccc1N1CCOCC1)c1ccc(N2CCCC2=O)cc1 | – | inactive: -24.4% |
| C[C@H](NC(=O)c1nc[nH]c1C(=O)N[C@@H](CCCCN)C(=O)OC(C)(C)C)C(=O)OCc1ccccc1 | – | inactive: 14.6% |
| COc1ccccc1-c1ccc(/C=C2/C=C(CC(C)C)OC2=O)o1 | – | inactive: -3.64% |
| CN(C(=S)Nc1ccc(SC(F)F)cc1)C(c1ccccc1)c1ccccc1 | inconclusive: 29.1 µM [inhibitor, partial curve, poor fit] | – |
| CS/C(=N\S(=O)(=O)c1cccs1)Nc1ccc(F)c(Cl)c1 | – | inactive: 29.1% |
| CCOc1ccc(S(=O)(=O)N2CCOCC2)cc1NC(=O)CN1C(=O)NC(CC)(c2ccccc2)C1=O (configuration not stated) | – | inactive: -8.45% |
| C/C(=N\NC(=O)c1ccc(Cn2cc([N+](=O)[O-])cn2)o1)c1cccc(NC(=O)C(C)C)c1 | inconclusive: 20.6 µM [inhibitor, partial curve] | – |
| CC(C)NC(=O)/C(C#N)=C/c1cccc(NC(=O)c2ccccc2Cl)c1 | inconclusive: 23.1 µM [inhibitor, single point] | – |
| CCN1CCc2c(sc(NC(=O)c3ccc4ccccc4c3)c2C(N)=O)C1 | inconclusive: 20.6 µM [activator, single point] | – |
| CCOC(=O)c1cccc(NC(=O)CSc2nc3cccnc3n2C)c1 | active: 18.4 µM | – |
| O=C(NCC1CCCO1)c1ccc(Oc2ccc([N+](=O)[O-])cc2Cl)cc1 (configuration not stated) | inconclusive: 14.6 µM [inhibitor, partial curve] | – |
| CCc1nc(SCC(=O)c2cccc([N+](=O)[O-])c2)n[nH]1 | – | inactive: 1.52% |
| COc1ccc(C)cc1-n1c(=O)c2ccccc2c2ccccc2c1=O | inconclusive: 20.6 µM [activator, single point] | – |
| COc1ccc(S(=O)(=O)N2CCOCC2)cc1NC(=O)COc1ccc2ccc(=O)oc2c1 | inconclusive: 16.4 µM [inhibitor, partial curve] | – |
| CN(Cc1ccccc1)C(=O)CN1CCN(S(=O)(=O)c2ccc(Cl)c(Cl)c2)CC1 | – | inactive: -4.83% |
| COc1ccccc1NC(=O)c1ccc(NC(=O)COC(=O)C(C)C)cc1 | inconclusive: 20.6 µM [activator, single point] | – |
| Oc1c(C=Nc2ccccc2)sc(=S)n1Cc1ccccc1 | – | inactive: 0.239% |
| Cc1nn(-c2ccc(Cl)c(Cl)c2)c(=O)c2ccccc12 | inconclusive: 3.98 µM [activator, partial curve] | – |
| CCNc1cc2oc(=O)c(CN3CCOCC3)c(C)c2cc1C | – | inactive: 5.43% |
| COc1ccc(-c2ncc(CN3CCC(CO)(Cc4cccc(OC)c4)CC3)cn2)cc1 | inconclusive: 16.4 µM [inhibitor, single point] | – |
